# Assay results

Source: PubChem BioAssay AID504749 (NCATS, 2011).

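Malaria parasite (P. falciparum) lines kept in red blood cells; parasite DNA is measured by SYBR Green fluorescence after lysis, 72 h after compound addition. Each compound was titrated across a series from about 0.000037 to 29 µM. The number is the fitted AC50, the concentration giving a half-maximal change in signal; a lower value means higher potency, whether the curve shows a decrease or an increase. Calls follow the curve class and fit quality: every row here is inconclusive, covering signal-raising curves and weak, poorly fitted, partial or highest-dose-only inhibition curves.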

Values are in µM. All entries here are filed as inconclusive. These entries are mostly ones the record files as inconclusive; other results of the assay are not listed here. Potencies fitted to partial, single-point or poorly fitting curves are rough. The first word of each remark tells which way the curve ran; it can be opposite to the aim of the assay.

Compound,tested on / at,Potency (µM),remark
CCN(CC)CCOc1ccc2c(c1)C(=O)c1cc(OCCN(CC)CC)ccc1-2,CP247,10,"inhibitor, single point"
CCN(CC)CCOc1ccc2c(c1)C(=O)c1cc(OCCN(CC)CC)ccc1-2,FAB9,11.22,"inhibitor, single point"
CCN(CC)CCOc1ccc2c(c1)C(=O)c1cc(OCCN(CC)CC)ccc1-2,SC27B,12.59,"inhibitor, single point"
CCN(CC)CCOc1ccc2c(c1)C(=O)c1cc(OCCN(CC)CC)ccc1-2,CP252,12.59,"inhibitor, single point"
CCN(CC)CCOc1ccc2c(c1)C(=O)c1cc(OCCN(CC)CC)ccc1-2,CP268,19.01,"inhibitor, single point"
CCN(CC)CCOc1ccc2c(c1)C(=O)c1cc(OCCN(CC)CC)ccc1-2,DFO2036,14.13,"inhibitor, single point"
CCN(CC)CCOc1ccc2c(c1)C(=O)c1cc(OCCN(CC)CC)ccc1-2,3D7,15.85,"inhibitor, single point"
O=c1n(CC2CO2)c(=O)n(CC2CO2)c(=O)n1CC1CO1 (configuration not stated),CP185,17.78,"inhibitor, single point"
O=c1n(CC2CO2)c(=O)n(CC2CO2)c(=O)n1CC1CO1 (configuration not stated),CP268,8.492,"inhibitor, partial curve, poor fit"
O=c1n(CC2CO2)c(=O)n(CC2CO2)c(=O)n1CC1CO1 (configuration not stated),CP250,10,"inhibitor, single point"
O=c1n(CC2CO2)c(=O)n(CC2CO2)c(=O)n1CC1CO1 (configuration not stated),C2A,10,"inhibitor, partial curve"
O=c1n(CC2CO2)c(=O)n(CC2CO2)c(=O)n1CC1CO1 (configuration not stated),DIV17,4.776,"inhibitor, partial curve, poor fit"
O=c1n(CC2CO2)c(=O)n(CC2CO2)c(=O)n1CC1CO1 (configuration not stated),CP291,10.69,"inhibitor, single point"
O=c1n(CC2CO2)c(=O)n(CC2CO2)c(=O)n1CC1CO1 (configuration not stated),P94_40,10,"inhibitor, single point"
O=c1n(CC2CO2)c(=O)n(CC2CO2)c(=O)n1CC1CO1 (configuration not stated),CP286,10,"inhibitor, single point"
O=c1n(CC2CO2)c(=O)n(CC2CO2)c(=O)n1CC1CO1 (configuration not stated),CP297,16.94,"inhibitor, single point"
O=c1n(CC2CO2)c(=O)n(CC2CO2)c(=O)n1CC1CO1 (configuration not stated),CP305,15.1,"inhibitor, single point"
O=c1n(CC2CO2)c(=O)n(CC2CO2)c(=O)n1CC1CO1 (configuration not stated),PAD,17.78,"inhibitor, single point"
O=c1n(CC2CO2)c(=O)n(CC2CO2)c(=O)n1CC1CO1 (configuration not stated),Dd2,12.59,"inhibitor, single point"
O=c1n(CC2CO2)c(=O)n(CC2CO2)c(=O)n1CC1CO1 (configuration not stated),CP247,17.78,"inhibitor, single point"
O=c1n(CC2CO2)c(=O)n(CC2CO2)c(=O)n1CC1CO1 (configuration not stated),AA1029,12.59,"inhibitor, single point"
O=c1n(CC2CO2)c(=O)n(CC2CO2)c(=O)n1CC1CO1 (configuration not stated),CP203,19.01,"inhibitor, partial curve, poor fit"
O=c1n(CC2CO2)c(=O)n(CC2CO2)c(=O)n1CC1CO1 (configuration not stated),ATS95,15.85,"inhibitor, single point"
O=c1n(CC2CO2)c(=O)n(CC2CO2)c(=O)n1CC1CO1 (configuration not stated),CP260,8.912,"inhibitor, single point"
O=c1n(CC2CO2)c(=O)n(CC2CO2)c(=O)n1CC1CO1 (configuration not stated),CP194,13.46,"inhibitor, single point"
O=c1n(CC2CO2)c(=O)n(CC2CO2)c(=O)n1CC1CO1 (configuration not stated),CP237,11.22,"inhibitor, single point"
O=c1n(CC2CO2)c(=O)n(CC2CO2)c(=O)n1CC1CO1 (configuration not stated),CP191,10,"inhibitor, single point"
O=c1n(CC2CO2)c(=O)n(CC2CO2)c(=O)n1CC1CO1 (configuration not stated),TAB165,17.78,"inhibitor, single point"
O=c1n(CC2CO2)c(=O)n(CC2CO2)c(=O)n1CC1CO1 (configuration not stated),GB4,9.528,"inhibitor, partial curve"
O=c1n(CC2CO2)c(=O)n(CC2CO2)c(=O)n1CC1CO1 (configuration not stated),CP335,19.01,"inhibitor, single point"
O=c1n(CC2CO2)c(=O)n(CC2CO2)c(=O)n1CC1CO1 (configuration not stated),P93_24,11.22,"inhibitor, single point"
O=c1n(CC2CO2)c(=O)n(CC2CO2)c(=O)n1CC1CO1 (configuration not stated),CP252,10,"inhibitor, single point"
O=c1n(CC2CO2)c(=O)n(CC2CO2)c(=O)n1CC1CO1 (configuration not stated),ICS,17.78,"inhibitor, single point"
O=c1n(CC2CO2)c(=O)n(CC2CO2)c(=O)n1CC1CO1 (configuration not stated),CP262,21.33,"inhibitor, partial curve, poor fit"
O=c1n(CC2CO2)c(=O)n(CC2CO2)c(=O)n1CC1CO1 (configuration not stated),CP265,17.78,"inhibitor, single point"
O=c1n(CC2CO2)c(=O)n(CC2CO2)c(=O)n1CC1CO1 (configuration not stated),3D7,10,"inhibitor, single point"
O=c1n(CC2CO2)c(=O)n(CC2CO2)c(=O)n1CC1CO1 (configuration not stated),DFO2036,17.78,"inhibitor, single point"
O=c1n(CC2CO2)c(=O)n(CC2CO2)c(=O)n1CC1CO1 (configuration not stated),TAB109,10,"inhibitor, single point"
O=c1n(CC2CO2)c(=O)n(CC2CO2)c(=O)n1CC1CO1 (configuration not stated),CP192,0.0005,activator
O=c1n(CC2CO2)c(=O)n(CC2CO2)c(=O)n1CC1CO1 (configuration not stated),W2,16.94,"inhibitor, single point"
O=c1n(CC2CO2)c(=O)n(CC2CO2)c(=O)n1CC1CO1 (configuration not stated),parasite line A,12.59,"inhibitor, single point"
O=c1n(CC2CO2)c(=O)n(CC2CO2)c(=O)n1CC1CO1 (configuration not stated),DIV14,6.746,"inhibitor, partial curve"
NNc1ccccc1,CP291,0.0005,inhibitor
NNc1ccccc1,CP315,3.381,"inhibitor, single point"
NNc1ccccc1,W2,0.003,"inhibitor, full curve, poor fit"
NNc1ccccc1,parasite line B,10,"inhibitor, single point"
COc1c(C)c2c(c(O)c1C/C=C(\C)CCC(=O)O)C(=O)OC2,CP266,8.087,"inhibitor, single point"
COc1c(C)c2c(c(O)c1C/C=C(\C)CCC(=O)O)C(=O)OC2,FAB9,7.08,"inhibitor, single point"
COc1c(C)c2c(c(O)c1C/C=C(\C)CCC(=O)O)C(=O)OC2,HB3,5.012,"inhibitor, single point"
COc1c(C)c2c(c(O)c1C/C=C(\C)CCC(=O)O)C(=O)OC2,CP315,5.726,"inhibitor, single point"
COc1c(C)c2c(c(O)c1C/C=C(\C)CCC(=O)O)C(=O)OC2,CP262,5.726,"inhibitor, single point"
COc1c(C)c2c(c(O)c1C/C=C(\C)CCC(=O)O)C(=O)OC2,CP268,8.087,"inhibitor, single point"
COc1c(C)c2c(c(O)c1C/C=C(\C)CCC(=O)O)C(=O)OC2,PC26,5.726,"inhibitor, single point"

For reference, 5 entries once more:

Compound,tested on / at,Potency (µM),remark
COc1c(C)c2c(c(O)c1C/C=C(\C)CCC(=O)O)C(=O)OC2,CP315,5.726,"inhibitor, single point"
O=c1n(CC2CO2)c(=O)n(CC2CO2)c(=O)n1CC1CO1 (configuration not stated),C2A,10,"inhibitor, partial curve"
O=c1n(CC2CO2)c(=O)n(CC2CO2)c(=O)n1CC1CO1 (configuration not stated),CP191,10,"inhibitor, single point"
O=c1n(CC2CO2)c(=O)n(CC2CO2)c(=O)n1CC1CO1 (configuration not stated),CP305,15.1,"inhibitor, single point"
COc1c(C)c2c(c(O)c1C/C=C(\C)CCC(=O)O)C(=O)OC2,CP266,8.087,"inhibitor, single point"